Measurements taken from PMC7778541.
These are yes or no findings as the source states them, for the method shown. In cells and extracts the contact can be indirect. Some binding calls cover weakened binding; strength is not graded here.

Amino acid sequences for entries named in this document (tags omitted).
UniProt P13010: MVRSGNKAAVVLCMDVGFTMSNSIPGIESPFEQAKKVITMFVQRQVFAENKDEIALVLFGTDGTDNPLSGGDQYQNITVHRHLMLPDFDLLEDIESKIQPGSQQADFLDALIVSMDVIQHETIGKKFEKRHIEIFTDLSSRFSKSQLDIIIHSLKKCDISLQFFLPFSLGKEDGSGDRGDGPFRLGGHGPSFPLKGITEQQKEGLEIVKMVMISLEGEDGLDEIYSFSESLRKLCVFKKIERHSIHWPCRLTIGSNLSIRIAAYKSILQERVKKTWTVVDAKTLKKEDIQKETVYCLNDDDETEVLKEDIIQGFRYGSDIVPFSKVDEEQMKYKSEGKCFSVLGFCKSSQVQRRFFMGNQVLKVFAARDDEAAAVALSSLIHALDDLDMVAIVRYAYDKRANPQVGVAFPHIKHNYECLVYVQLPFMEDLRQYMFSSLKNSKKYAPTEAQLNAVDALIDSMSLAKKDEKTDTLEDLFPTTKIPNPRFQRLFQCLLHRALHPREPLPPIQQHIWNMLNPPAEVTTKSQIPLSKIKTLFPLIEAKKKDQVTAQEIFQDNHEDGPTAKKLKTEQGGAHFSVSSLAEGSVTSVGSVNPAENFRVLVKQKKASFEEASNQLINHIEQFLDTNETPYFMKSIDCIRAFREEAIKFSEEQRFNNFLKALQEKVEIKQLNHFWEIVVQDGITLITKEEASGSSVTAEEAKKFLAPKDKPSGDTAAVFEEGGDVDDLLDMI

T1: Deltex3 (human (endogenous in PTC cells)) (UniProt Q8N9I9)
T1 sequence: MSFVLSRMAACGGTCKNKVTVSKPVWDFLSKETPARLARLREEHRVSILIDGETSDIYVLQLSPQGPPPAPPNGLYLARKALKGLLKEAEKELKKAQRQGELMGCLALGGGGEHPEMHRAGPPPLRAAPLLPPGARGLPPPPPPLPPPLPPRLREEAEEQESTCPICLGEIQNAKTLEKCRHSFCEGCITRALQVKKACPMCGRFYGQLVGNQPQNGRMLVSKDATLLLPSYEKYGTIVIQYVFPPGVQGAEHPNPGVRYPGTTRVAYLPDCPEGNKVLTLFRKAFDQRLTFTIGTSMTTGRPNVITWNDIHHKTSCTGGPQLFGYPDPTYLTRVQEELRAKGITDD


Biological target: T1, Deltex3 (human (endogenous in PTC cells))
Assay: co-IP; whole cell lysates; immunoprecipitation with DTX3, NDUFAF5 or XRCC5 antibody or normal IgG, 4 °C, Protein A/G PLUS-Agarose beads; western blot of the partner; both orientations

binding | Molecule
binds | X-ray repair cross-complementing protein 5 (from UniProt P13010 1-732)
binds | NADH: Ubiquinone Oxidoreductase Complex Assembly Factor 5 (protein, UniProt Q5TEU4 37-345) GSTSPRTLNIFDRDLKRKQKNWAARQPEPTKFDYLKEEVGSRIADRVYDIPRNFPLALDLGCGRGYIAQYLNKETIGKFFQADIAENALKNSSETEIPTVSVLADEEFLPFKENTFDLVVSSLSLHWVNDLPRALEQIHYILKPDGVFIGAMFGGDTLYELRCSLQLAETEREGGFSPHISPFTAVNDLGHLLGRAGFNTLTVDTDEIQVNYPGMFELMEDLQGMGESNCAWNRKALLHRDTMLAAAAVYREMYRNEDGSVPATYQIYYMIGWKYHESQARPAERGSATVSFGELGKINNLMPPGKKSQ
